Measured values: patent US10035989B2, “Method for producing polyunsaturated fatty acids in transgenic plants” (BASF Plant Science GmbH, priority 2004, dated 2018)

What was measured:
At3g06460 elongase = experiment: Elongation of EPA by the elongase At3g06460 in yeast; conditions: yeast extracts after feeding of 250 μM EPA
At3g06470 elongase = experiment: Elongation of EPA by the elongase At3g06470 in yeast; conditions: yeast extracts after feeding of 250 μM EPA; second line of Table 20
TL16y2 Δ5-elongase = experiment: Expression of TL16y2 in yeast (feeding experiments, GC); assay type: cell-based, Thraustochytrium ssp.
Procedure: The yeasts were subsequently plated onto complete uracil dropout minimal medium supplemented with 2% glucose.
The substrate specificity of BioTaurELO1 was determined after expression and feeding of various fatty acids (FIG. 6). […] After the fatty acids had been extracted from the yeasts, they were transmethylated and separated by gas chromatography. The elongation products originating from the two fatty acids which had been fed are identified by arrows.
The functionality and substrate specificity of TL16y2 were determined after expression and feeding of various fatty acids. […] The feeding experiments were carried out in the same manner as described for BioTaurELO1. The substrates which have been fed can be detected in large amounts in all transgenic yeasts. […] This means that the gene TL16y2 has been expressed functionally.

| Molecule | C20:5n-3 content (At3g06460 elongase) | C22:5n-3 content (At3g06460 elongase) | C20:5n-3 content (At3g06470 elongase) | C22:5n-3 content (At3g06470 elongase) | C20:5 (n-3), % areas in the gas-chromatographic analysis (TL16y2 Δ5-elongase; fed 50 μm EPA) | C22:5 (n-3), % areas in the gas-chromatographic analysis (TL16y2 Δ5-elongase; fed 50 μm EPA) | C20:4 (n-6), % areas in the gas-chromatographic analysis (TL16y2 Δ5-elongase; fed 250 μm ARA) | C20:5 (n-3), % areas in the gas-chromatographic analysis (TL16y2 Δ5-elongase; fed 250 μm ARA) | C20:5 (n-3), % areas in the gas-chromatographic analysis (TL16y2 Δ5-elongase; fed 250 μm EPA) | C22:5 (n-3), % areas in the gas-chromatographic analysis (TL16y2 Δ5-elongase; fed 250 μm EPA) | C18:3 (n-6), % areas in the gas-chromatographic analysis (TL16y2 Δ5-elongase; fed 250 μm GLA) | C20:3 (n-6), % areas in the gas-chromatographic analysis (TL16y2 Δ5-elongase; fed 250 μm GLA) | C18:4 (n-3), % areas in the gas-chromatographic analysis (TL16y2 Δ5-elongase; fed 250 μm SDA) | C20:4 (n-3), % areas in the gas-chromatographic analysis (TL16y2 Δ5-elongase; fed 250 μm SDA) |
| --- | --- | --- | --- | --- | --- | --- | --- | --- | --- | --- | --- | --- | --- | --- |
| At3g06460: elongase from Arabidopsis thaliana, SEQ ID NO: 135 (protein, listed as Arabidopsis thaliana, CDS (1)..(897): Delta-5 elongase) MASVYSTLTYWLVHHPYIANFTWTEGETLGSTVFFVFVVVSLYLSATFLLRYTVDSLPTLGPRILKPITAVHSLILFLLSLTMAVGCTLSLISSSDPKARLFDAVCFPLDVKPKGPLFFWAQVFYLSKILEFVDTLLIILNKSIQRLSFLHVYHHATVVILCYLWLRTRQSMFPVGLVLNSTVHVIMYGYYFLCAIGSRPKWKKLVTNFQMVQFAFGMGLGAAWMLPEHYFGSGCAGIWTVYFNGVFTASLLALFYNFHSKNYEKTTTSPLYKIESFIFIHGERWANKAITLFSKKND | 20.8 | 0.6 | 25.4 | 1.1 |  |  |  |  |  |  |  |  |  |  |
| TL16y2: Δ5-elongase from Thraustochytrium ssp., SEQ ID NO: 83 (protein, listed as Thraustochytrium sp., CDS (1)..(831): Delta-5 elongase) MDVVEQQWRRFVDAVDNGIVEFMEHEKPNKLNEGKLFTSTEEMMALIVGYLAFVVLGSAFMKAFVDKPFELKFLKLVHNIFLTGLSMYMATECARQAYLGGYKLFGNPMEKGTESHAPGMANIIYIFYVSKFLEFLDTVFMILGKKWKQLSFLHVYHHASISFIWGIIARFAPGGDAYFSTILNSSVHVVLYGYYASTTLGYTFMRPLRPYITTIQLTQFMAMVVQSVYDYYNPCDYPQPLVKLLFWYMLTMLGLFGNFFVQQYLKPKAPKKQKTI |  |  |  |  | 2.48% | 1.73% | 15.2% | 3.87% | 25.81% | 2.25% | 3.59% | 10.71% | 7.74% | 29.17% |
